# Reference: the supplement of paper PMC3334620
# The full ranking holds about 33,000 sequences; the median of “E-score (-0.5 to 0.5)” is about -0.0034, and the highest 2% start at about 0.25. Some of the results follow.
# Molecular target: T1, Yap3 (UniProt P38749)
# T1 sequence: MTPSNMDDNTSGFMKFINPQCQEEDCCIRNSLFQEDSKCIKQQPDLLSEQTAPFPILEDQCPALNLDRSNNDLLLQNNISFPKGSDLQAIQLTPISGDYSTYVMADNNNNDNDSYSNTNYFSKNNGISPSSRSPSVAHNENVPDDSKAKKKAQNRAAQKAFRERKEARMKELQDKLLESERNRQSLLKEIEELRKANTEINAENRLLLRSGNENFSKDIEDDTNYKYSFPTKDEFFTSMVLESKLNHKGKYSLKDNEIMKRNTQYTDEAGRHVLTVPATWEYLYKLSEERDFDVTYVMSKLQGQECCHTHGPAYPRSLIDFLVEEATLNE
# Test: PBM E-score (8-mer binding enrichment) (E-score (-0.5 to 0.5)); higher = stronger / more preferred TF binding
# Settings: protein concentration: 100 nM; construct: GST-full length
# Summary of the method: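 Universal all-10-mer Agilent arrays, fresh or stripped once, were converted to double-stranded form by primer extension. GST-tagged yeast transcription factors from PURExpress in vitro transcription/translation, full-length or DNA-binding domain only, were applied at about 100-200 nM and detected with fluorescent anti-GST. After masliner normalisation, the Universal PBM Analysis Suite scored each ungapped eight-base word together with its reverse complement by E-score.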
row,Sequence,PBM E-score
1,CCGCCCAA,-0.109
2,GCGTTCCA,0.00484
3,ATTTGCAG,0.0193
4,GCATATTA,0.215
5,GCGTTTCC,0.0968
6,AGTCGTAG,-0.143
7,CAGAGGAG,-0.227
8,CAACGCTC,-0.00757
9,CCTTGGCC,-0.384
10,CCTTTCAC,0.0459
11,ATTGGCCG,-0.00271
12,GAGTTCTA,-0.0854
13,ATGATTCG,-0.0168
14,CTACCTTA,0.0241
15,TACAGGAA,0.167
16,GTACGTCA,0.267
17,AGCGTGAT,0.106
18,GACCGCAA,-0.111
19,GCGGTTCA,-0.0626
20,GCAACCTA,-0.0401
21,CCAGCACG,-0.128
22,CCCCCAAG,-0.253
23,AGCCGAAC,-0.105
24,ACATTCCT,0.0481
25,CATCTCTA,0.0212

row,Sequence,PBM E-score
1,AAGAACCG,0.139
2,ACGAACAG,0.0431
3,ATAAACAC,0.1
4,GCCAAAAA,0.0735
5,TGGGACAA,0.125
6,CGCCGATC,-0.0265
7,ACTTCTAT,0.108
8,CCTCCAGG,-0.401
9,AACTACAT,0.106
10,ATGCACGA,-0.0391
11,CACAAACC,0.0265
12,CTCAGGAC,-0.0963
13,ACATGGAG,-0.236
14,AGCATCAC,-0.0683
15,ATAATTAA,0.259
16,ACAAGTGT,-0.00448
17,GAGCTCCA,-0.179
18,GCATGAAA,0.176
19,CTGGTATC,-0.0149
20,CGCCCTGA,-0.0284
21,ACGATCTG,0.0119
22,AGCAGGGC,-0.158
23,GCACCGCC,-0.254
24,AAGACATT,-0.0286
25,GATCGGTA,0.0794

row,Sequence,PBM E-score
1,AGGATACA,0.0461
2,GTGGCGGA,-0.126
3,CCTTGGAA,-0.0618
4,GACAAGGA,-0.0488
5,CTAGTGCC,-0.274
6,AAACTCTT,-0.162
7,ACTACCAC,0.0697
8,CCTGAGCA,-0.0903
9,AGAAATCC,0.0494
10,AGGGATTA,0.0524
11,CGAAGAAG,0.0862
12,ACCCAAGC,-0.214
13,GAACGGGA,-0.0727
14,AATCCGTC,0.0988
15,GTACACAC,0.242
16,ACTACCTG,0.0736
17,GAGTGGCA,-0.00056
18,AGTCTCAA,-0.175
19,CAGCCACG,-0.0341
20,ACAAGGCA,-0.0311
21,CTAAATAC,0.0333
22,CTTGATGA,0.133
23,TGACTAAA,0.125
24,ACTAGGTA,0.0146
25,CCGACATA,0.0927

# 56 entries from above, tab-delimited.
row	Sequence	PBM E-score
19	GCGGTTCA	-0.0626
20	GCAACCTA	-0.0401
21	CCAGCACG	-0.128
22	CCCCCAAG	-0.253
23	AGCCGAAC	-0.105
24	ACATTCCT	0.0481
25	CATCTCTA	0.0212
1	AAGAACCG	0.139
2	ACGAACAG	0.0431
3	ATAAACAC	0.1
4	GCCAAAAA	0.0735
5	TGGGACAA	0.125
6	CGCCGATC	-0.0265
7	ACTTCTAT	0.108
8	CCTCCAGG	-0.401
9	AACTACAT	0.106
10	ATGCACGA	-0.0391
11	CACAAACC	0.0265
12	CTCAGGAC	-0.0963
13	ACATGGAG	-0.236
14	AGCATCAC	-0.0683
15	ATAATTAA	0.259
16	ACAAGTGT	-0.00448
17	GAGCTCCA	-0.179
18	GCATGAAA	0.176
19	CTGGTATC	-0.0149
20	CGCCCTGA	-0.0284
21	ACGATCTG	0.0119
22	AGCAGGGC	-0.158
23	GCACCGCC	-0.254
24	AAGACATT	-0.0286
25	GATCGGTA	0.0794
1	AGGATACA	0.0461
2	GTGGCGGA	-0.126
3	CCTTGGAA	-0.0618
4	GACAAGGA	-0.0488
5	CTAGTGCC	-0.274
6	AAACTCTT	-0.162
7	ACTACCAC	0.0697
8	CCTGAGCA	-0.0903
9	AGAAATCC	0.0494
10	AGGGATTA	0.0524
11	CGAAGAAG	0.0862
12	ACCCAAGC	-0.214
13	GAACGGGA	-0.0727
14	AATCCGTC	0.0988
15	GTACACAC	0.242
16	ACTACCTG	0.0736
17	GAGTGGCA	-0.00056
18	AGTCTCAA	-0.175
19	CAGCCACG	-0.0341
20	ACAAGGCA	-0.0311
21	CTAAATAC	0.0333
22	CTTGATGA	0.133
23	TGACTAAA	0.125
24	ACTAGGTA	0.0146

# Going on with the list:

row,Sequence,PBM E-score
1,AAAAGGCT,-0.0958
2,TAACCAAA,0.213
3,TGGGCCCA,0.0816
4,GGCGTAAA,0.147
5,ATTGAGAA,0.17
6,ACCGTCGA,-0.147
7,CGAAGATC,0.0118
8,CGTCCATC,-0.116
9,AGTGGTAA,0.0605
10,ACCTGTCG,0.0682
11,CGTCGAAG,-0.0269
12,ACGAGGTC,-0.00365
13,ACCCGAAA,-0.0231
14,GGGTATTA,0.0348
15,GGCCGTAC,-0.0359
16,CATAGAGG,-0.0925
17,AGCATTAT,0.157
18,GCGGGTAA,-0.0735
19,ATACCGAG,-0.0707
20,CGTCATGA,0.0958
21,ATTTGCCC,0.0985
22,ACTGGTAC,-0.00269
23,CTCATTTC,-0.0658
24,ATATGTGC,0.0272
25,CGTGAACA,0.031

row,Sequence,PBM E-score
1,AATTAGGC,0.155
2,GTCCTTAA,0.147
3,AATCCGGC,0.0559
4,CCCCCATC,-0.289
5,CCTAATTA,0.136
6,ATAGTCTA,-0.0503
7,TCCGTCCA,-0.00142
8,CGTAATAG,0.314
9,TAGGTCAA,0.0932
10,CCTTTCTC,-0.033
11,CGTACCGA,-0.0394
12,CAGTCATC,-0.27
13,CCACCTGC,-0.00772
14,ATATATTC,0.241
15,ACAAACAA,0.173
16,CTGCATCC,0.00606
17,AGCTCTCA,-0.171
18,CGAACGAA,0.108
19,AGTTTCTG,0.022
20,GAGCTTCA,0.0798
21,GTTTTGCA,0.0353
22,ACGAATTG,0.0568
23,AAGCTCTG,-0.179
24,GTTTAGTA,0.275
25,CTAAGCAA,-0.0294

row,Sequence,PBM E-score
1,GATCGAAC,-0.0957
2,GCGGTTAC,0.041
3,CAAGTTTA,0.0415
4,CCCAGTGC,-0.0688
5,AGTCTTTG,-0.178
6,GTAGTGGA,0.144
7,CCCTCCTC,-0.327
8,ACCACTCG,0.0759
9,ATACATAC,0.0937
10,ACCCTAGC,-0.189
11,ATAGCAGC,-0.0604
12,AAATAAGT,0.145
13,AACAGCAC,0.0426
14,AGGAATGC,-0.0871
15,AATCCGAG,0.00595
16,GCTGAGGA,-0.11
17,ACGGTTAG,-0.0943
18,TAACAGCA,0.183
19,AATCTCTC,-0.0515
20,ACGTACCA,0.118
21,CGGATTCA,0.0218
22,GCATCGGA,0.0224
23,GGCCTTGA,-0.0754
24,TCTTTCAA,0.102
25,CTTTGACC,0.0628

row,Sequence,PBM E-score
1,CGCGCACG,-0.0669
2,GACATGAA,0.00571
3,CGCTTTCA,0.0529
4,CTACAAGA,-0.0715
5,CGTCTGTC,-0.0989
6,AATACTCG,0.131
7,TAAGCCTA,0.141
8,AACTATAA,0.186
9,CTTCTAAC,-0.21
10,CAGCTCCG,-0.111
11,CTCTAACC,-0.137
12,ACTTGGCA,-0.0663
13,GGACTTCA,-0.143
14,CGTAGCAG,-0.142
15,ACTACAAG,-0.0453
16,ACTTCGCG,0.0127
17,GATGGACC,0.0557
18,CGACGCAC,0.0329
19,GTTCTCAA,0.109
20,AGCCTATG,-0.0995
21,CACTTGCC,-0.0273
22,GCCACCAC,-0.279
23,CTCAACCC,-0.0853
24,CATGACCC,-0.0127
25,CTCAGGTC,-0.0312

row,Sequence,PBM E-score
1,GGAACAGA,0.121
2,CTGCCTAA,-0.0262
3,ATTTATGG,0.15
4,CCGCAGAA,0.137
5,GCATACGA,-0.062
6,ATGACCCG,-0.225
7,TCTTTGCA,0.0876
8,AAGCGTGC,-0.0546
9,CATGTAGC,-0.048
10,CGTTTTCC,0.159
11,AATTGTCG,0.0823
12,CCTCGAAA,0.00526
13,AAGGAGTA,0.0193
14,ATCGTCTA,0.0489
15,CGACGTGC,-0.0495
16,CGAACTTA,0.0175
17,CTTAACTC,0.107
18,AGTCGACA,0.0995
19,TATGGCCA,0.0682
20,AGAGCTCT,-0.171
21,AGCCCGAG,-0.24
22,CGGCCAGC,-0.167
23,GGCGATGA,-0.0696
24,CCAAGCCG,-0.135
25,ACCAGCAC,-0.0391

row,Sequence,PBM E-score
1,CAGGCGTA,-0.145
2,ACTTCCCT,-0.0641
3,TAAGTTGA,0.0954
4,ACAGTCAC,-0.196
5,GGCATACA,0.0706
6,CCCAGAGC,-0.219
7,GGTTCACA,-0.106
8,GAGTGCCC,-0.176
9,AAGGTATA,0.0493
10,ATCCGCGA,0.0412
11,CCCCAGAA,-0.168
12,CACCCACC,0.0143
13,TAAGCGCA,-0.0135
14,ACCAATGG,-0.013
15,CGCCCGCC,-0.288
16,ACGGGGCG,0.0648
17,CACGACGC,-0.211
18,CATGGCGC,-0.0288
19,ACGACTAG,0.0495
